No constants are given. Whether binding was seen depends on the method and setting.
Target: Staphylococcus aureus PriA helicase (S. aureus)
Test: SPR; SaPriA immobilised on CM5 chip, Biacore T200, 293 K, 40 mM Tris, 200 mM NaCl, 0.05% Tween-20, pH 8.0; analyte injected 120 s at 30 uL/min; 1:1 (Langmuir) model; both purified

NANGPIDISDDDLPF [SaSsbA-Ct peptide] was tested, and the binding was “no binding (tested: 0.06 to 2 μM)”.
